This is an account of results in PMC4675558.

Protein sequences, listed by entry. Tags and fused reporters are not part of them.
UniProt P52286: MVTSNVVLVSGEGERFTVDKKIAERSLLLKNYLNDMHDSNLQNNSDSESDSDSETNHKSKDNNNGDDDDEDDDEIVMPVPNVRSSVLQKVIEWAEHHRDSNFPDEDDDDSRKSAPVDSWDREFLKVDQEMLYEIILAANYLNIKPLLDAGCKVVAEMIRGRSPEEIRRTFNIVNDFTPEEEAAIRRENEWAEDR

Where a chain is given by its changes, count along the chain named. No constants are given. Whether binding was seen depends on the method and setting. In cells and extracts the contact can be indirect. Some entries that bind do so weakly or less than the wild type. Where a sequence is shown, tags or fusion partners need not be part of it.

For assay [1], the target named is T1, 12Myc-tagged Met30 L187D (S. cerevisiae) (UniProt P39014).
T1 sequence: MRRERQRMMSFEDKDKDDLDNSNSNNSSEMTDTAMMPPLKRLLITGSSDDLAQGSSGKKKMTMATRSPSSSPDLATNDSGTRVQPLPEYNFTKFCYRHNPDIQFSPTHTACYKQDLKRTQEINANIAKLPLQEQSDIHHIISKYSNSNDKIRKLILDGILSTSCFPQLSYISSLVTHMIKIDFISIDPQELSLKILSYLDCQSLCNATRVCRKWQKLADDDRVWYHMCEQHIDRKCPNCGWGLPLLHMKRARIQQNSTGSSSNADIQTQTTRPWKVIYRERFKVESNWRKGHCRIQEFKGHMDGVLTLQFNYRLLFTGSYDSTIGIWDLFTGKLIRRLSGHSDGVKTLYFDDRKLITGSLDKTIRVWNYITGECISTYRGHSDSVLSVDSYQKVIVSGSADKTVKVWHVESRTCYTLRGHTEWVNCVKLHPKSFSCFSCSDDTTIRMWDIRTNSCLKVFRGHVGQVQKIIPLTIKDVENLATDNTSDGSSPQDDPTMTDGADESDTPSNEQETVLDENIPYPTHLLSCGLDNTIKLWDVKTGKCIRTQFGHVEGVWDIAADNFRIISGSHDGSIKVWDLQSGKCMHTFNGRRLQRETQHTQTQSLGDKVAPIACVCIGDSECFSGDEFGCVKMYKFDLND
The assay is described as follows: co-IP; 12MycMet30 or 12MycMet30 L187D immunopurified from yeast grown at 30°C; co-purified proteins by immunoblotting; untagged Met30 strain as control. For orientation: A western blot detects proteins with antibodies after separation by electrophoresis.

Assay [2] addresses T2, 12Myc-tagged Cdc53 Y133R, GAL1 inducible (S. cerevisiae) (UniProt Q12018).
T2 sequence: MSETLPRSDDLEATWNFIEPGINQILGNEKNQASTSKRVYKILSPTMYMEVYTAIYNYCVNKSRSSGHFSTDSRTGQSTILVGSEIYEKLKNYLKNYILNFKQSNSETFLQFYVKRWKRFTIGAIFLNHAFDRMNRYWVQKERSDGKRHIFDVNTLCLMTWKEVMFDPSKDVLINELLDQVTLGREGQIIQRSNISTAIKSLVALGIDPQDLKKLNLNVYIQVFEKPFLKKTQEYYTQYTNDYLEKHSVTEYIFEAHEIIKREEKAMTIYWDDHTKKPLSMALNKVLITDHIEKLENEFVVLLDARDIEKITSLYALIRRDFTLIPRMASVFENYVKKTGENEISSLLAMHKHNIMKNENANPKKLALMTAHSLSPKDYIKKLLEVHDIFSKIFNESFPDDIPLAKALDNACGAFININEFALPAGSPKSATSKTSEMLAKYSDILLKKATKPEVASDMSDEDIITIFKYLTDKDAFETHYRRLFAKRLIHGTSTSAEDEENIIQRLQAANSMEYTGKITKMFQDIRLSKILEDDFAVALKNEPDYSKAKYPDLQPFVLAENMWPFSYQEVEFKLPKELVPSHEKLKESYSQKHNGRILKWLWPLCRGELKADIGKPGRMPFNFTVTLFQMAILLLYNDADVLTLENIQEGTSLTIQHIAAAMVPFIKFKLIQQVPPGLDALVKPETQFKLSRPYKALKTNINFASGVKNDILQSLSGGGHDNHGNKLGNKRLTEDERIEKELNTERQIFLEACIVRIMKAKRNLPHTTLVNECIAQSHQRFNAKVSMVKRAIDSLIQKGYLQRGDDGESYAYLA
The assay is described as follows: co-IP; 12MycCdc53 or 12MycCdc53 Y133R (GAL1 inducible, 2% galactose, 30°C) immunopurified from yeast lysate (Triton X-100 buffer); co-purified proteins by immunoblotting.

The target of assay [3] is T3, (MBP)-Met30(1-186) (S. cerevisiae) (UniProt P39014).
T3 sequence: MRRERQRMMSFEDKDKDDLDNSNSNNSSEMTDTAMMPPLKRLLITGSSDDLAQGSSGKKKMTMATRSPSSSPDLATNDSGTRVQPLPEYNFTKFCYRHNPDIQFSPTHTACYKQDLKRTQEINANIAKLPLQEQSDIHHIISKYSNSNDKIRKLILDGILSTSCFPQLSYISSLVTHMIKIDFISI
The assay is described as follows: pull-down; MBP-tagged proteins on amylose resin incubated with 3 mg of Skp1-depleted yeast lysate expressing Cdc53-TAP, 2 h at 4°C, recombinant protein buffer (150 mM NaCl, 0.05% Triton-X100, 0.05% NP-40); Cdc53 detected with PAP antibody; only the target purified.

The target in assay [4] is T4, (MBP)-Met30(1-186) M178E/I179E (S. cerevisiae) (UniProt P39014).
T4 sequence: T3 sequence with M178E, I179E
The description is as above.

Turning to Skp1 (from UniProt P52286 1-194), the binding entry in assay [1] and in assay [2] was “no binding” in each case.

B1: TAP-tagged Cdc53, endogenous (protein, UniProt Q12018 1-815)
chain: T2 sequence with R133Y
B1: the binding entry in assay [3] and in assay [4] was “binds” in each case.
